Results: article PMC10433963
No constants are given. Whether binding was seen depends on the method and setting. Binding seen in cells or lysates may run through a third protein. Here binding means that the protein was enriched with, or labelled near, the bait; the list need not be complete. No binding means not detected with the bait.

Protein sequences, listed by entry. Tags and fused reporters are not part of them. Residues count along the entry.
ClpC1^NTD (ClpC1 N-terminal domain alone, aa 1 to 147, C-terminal 3xFLAG) (A0R574, residues 1-147): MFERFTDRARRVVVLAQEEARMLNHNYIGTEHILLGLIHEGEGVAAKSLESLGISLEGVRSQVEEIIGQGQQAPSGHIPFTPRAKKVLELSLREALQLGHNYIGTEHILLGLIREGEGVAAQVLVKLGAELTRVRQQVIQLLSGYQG
ClpC1^CORE (ClpC1 lacking the NTD, aa 158 to 848, C-terminal 3xFLAG) (A0R574, residues 158-848): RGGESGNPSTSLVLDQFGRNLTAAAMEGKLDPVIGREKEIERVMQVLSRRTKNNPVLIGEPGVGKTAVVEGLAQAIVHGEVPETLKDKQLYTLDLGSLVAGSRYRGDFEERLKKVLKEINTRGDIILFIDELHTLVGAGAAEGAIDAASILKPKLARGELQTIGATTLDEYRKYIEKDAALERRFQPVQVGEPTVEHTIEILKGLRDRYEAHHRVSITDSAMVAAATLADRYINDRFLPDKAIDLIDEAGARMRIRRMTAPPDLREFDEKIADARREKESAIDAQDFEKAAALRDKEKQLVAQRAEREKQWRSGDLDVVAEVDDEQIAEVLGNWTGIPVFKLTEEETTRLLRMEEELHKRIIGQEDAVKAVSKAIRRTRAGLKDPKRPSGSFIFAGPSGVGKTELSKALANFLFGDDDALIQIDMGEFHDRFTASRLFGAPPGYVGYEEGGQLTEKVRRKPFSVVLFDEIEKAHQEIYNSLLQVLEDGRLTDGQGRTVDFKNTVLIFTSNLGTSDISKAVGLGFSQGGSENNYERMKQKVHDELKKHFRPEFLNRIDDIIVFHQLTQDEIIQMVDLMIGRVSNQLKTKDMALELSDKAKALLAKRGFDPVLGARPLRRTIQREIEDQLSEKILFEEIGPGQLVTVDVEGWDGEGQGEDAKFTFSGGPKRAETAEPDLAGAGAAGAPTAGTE

Tests used:
[1] = target: ClpC1^CORE (ClpC1 lacking the NTD, aa 158 to 848, C-terminal 3xFLAG) (M. smegmatis) (UniProt A0R574); assay: affinity purification with mass spectrometry; 3xFLAG-tagged ClpC1 construct expressed in M. smegmatis MC2155; lysate incubated with anti-FLAG M2 beads 1 h at 4°C in 25 mM HEPES, 10 mM MgCl2, 200 mM KCl, 0.1 mM EDTA, 10 mM ATP, pH 7.5; SDS-PAGE, in-gel trypsin digestion, LC-MS/MS; proteins seen in at least two of three biological replicates; proteins of the empty vector control ignored
[2] = target: ClpC1^NTD (ClpC1 N-terminal domain alone, aa 1 to 147, C-terminal 3xFLAG) (M. smegmatis) (UniProt A0R574); assay: as above

B1: Sec-independent protein translocase protein TatA (protein, UniProt A0QZ40 1-81)
chain: MGGLQPWHWVIVIAVFVLLFGAKKLPDAARSLGKSMRIFKSEIKEMQAESKGDEPKPATPIASERVDTTAPEQQSTDRHTA
binding [1]: no binding
binding [2]: binds

B2: Lipoarabinomannan carrier protein LprG (protein, UniProt A0QWU8 26-236)
chain: CSSSSETSDAPLPDGAALLQESASKTKTQQSVHLLLTVQGKVDGLPVEKLDGDLTNAPAVAAEGTADLIAFGQKIADAKFVIADGNLYAALTPGDPLSNYGAAANIYDVSAILNPDTGLANVLANFSDATADGRESINGTEAVRVKGNVSADAVNKIAPALKADGPVPGTAWITEDDHTLLQAQLEPTPGNSVTMTLSDWGKQVNVTKPAA
binding [1]: no binding
binding [2]: binds

B3: ATPase, MoxR family protein (protein, UniProt A0QX24 1-348)
chain: MNNGGLQAEVHTLERAIFEVKRIIVGQDQLVERMLVGLLAKGHVLLEGVPGVAKTLAVETFAKVVGGTFARIQFTPDLVPTDIVGTRIYRQGKEEFEIELGPAVVNFLLADEINRAPAKVQSALLEIMAERKISIGGQTFPLPSPFLVMATQNPIEQEGVYQLPEAQRDRFLFKLNVDYPSPEEEREIIYRMGVKPPEPKQILTTGDLLRLQDVAANTFVHHALVDYVVRIVTATREPEKFGMPDAKAWIAYGASPRASLGIISAARALALVRGRDYVIPQDVVEVIPDVLRHRLVLTYDALADEISSETVVNRILQTVALPQVNALPQQGHSVPPAVPAAAAAASGR
binding [1]: no binding
binding [2]: binds

B4: 4-Aminobutyrate transaminase (EC 2.6.1.19) (protein, UniProt A0R6V5 1-450)
chain: MTATLTGGPDLQQARRILTEIPGPRSRDLAERRNAALPAGLASGAGVYIAAAGGGVVVDVDGNSFIDLGSGIAVTTVGNAAPAVVSRAGSQLAQYTHTCFLNVPYEPYIEVAERLNALTPGDHQKRTALFSTGAEAVENAVKYARAYTGRDAVVVFDHAFHGRSLLTMTMTAKNQPYKHGFGPFAPEVYRAPMAYPYRWPSGPENCAAEAFDLFTTLIDAQIGADQVACVVVEPIQGEGGFIVPAEGFLQKVADFCRERGILVVADEVQTGIARTGAWFACEHEDLVPDLITTAKGLGGGLPLAAVTGRAEIMDAAHAGGIGGTYAGNPVACAAALGVFDEIEQNGLIERARAIGEVIVAELRSIAATTGLIGEIRGRGAMIAVELIKPGTREPNKEAVAALAKHCHDNGVLTLTAGTFGNVLRFLPPLTITDELLVDAFGVIRDGFAAL
binding [1]: no binding
binding [2]: binds

B5: Nitrogen regulatory protein P-II (protein, UniProt A0QV28 1-112)
chain: MKLITAIVKPFTLEDVKTGLEQTGILGMTVSEVQGYGRQKGHTEVYRGAEYSVDFVPKVRVEVVVDDSAVDKVVDVIVQAARTGKIGDGKVWVSPVETVVRVRTGERGADAL
binding [1]: no binding
binding [2]: binds

B6: 30S ribosomal protein S18 2 (protein, UniProt A0R7F7 1-84)
chain: MAKSNKRRPAPEKPVKTRKCVFCSKKGQTIDYKDTALLRTYISERGKIRARRVTGNCVQHQRDIAVAVKNAREVALLPFGSSTR
binding [1]: no binding
binding [2]: binds

B7: Nitroreductase (protein, UniProt A0R2L3 1-217)
chain: MEFTDVVRTTAAIRQFTGDPLPDDVLRRILDNARFAPSGGNRQGTRVVVIRDRDTREALAELTITGSRRYIAQKRIGENPWNPLHPTAVTEADLAAVDVPRATPLLDAAVVLVVCVDLGVVAAFDQDLDRIGVVSGASVYPFVWNILLSARNEGFGGVLTTMAIAEEPKVKELLAIPDDYAVAAVLPLGKPVHQPTKLTRKPVSEIATRERFDGAPF
binding [1]: binds
binding [2]: no binding

B8: Glyoxalase family protein (protein, UniProt A0QSB2 1-427)
chain: MNADHDPLTVLHQHDEPPVAPDPEFVARLRARLEAALTLPNRTEGVVMTGTDTAIAELKSPSQAAPRPAVISYLTVADARAAIGFYVDALGARVLGDPIVMDDGRIGHAELLLAGGVLYLADEFPEIGLKAPAPNAVSVSLMLSVPDTDAALARAAAHGARVQREPYEDHGTRNATFIDPSGHRWMLSGPVGVRVPVEAIRHGDVGYVSVWVPDADRAAAFYGHVLGWTYDPATRQVTNTQEHIGIFSVAGAPTMFCCYAVDDLDAARRAITAGGGTPGEVRESEFGTVLDATDPAGTAFAVFEPVPGTPRPAVNGTGPGSLSYITYNVPDSAAFKEFYGHVLSWTFEPGRIADGWGVQNCQPMSGMAGGSDRATTVPMWTVADIDAAVTRVREAGGTVISAPARQPYGLMAECTDDQGARFYLGEF
binding [1]: binds
binding [2]: no binding

B9: Protein RecA (recombinase A) (protein, UniProt Q59560 1-349)
chain: MAQQAPDREKALELAMAQIDKNFGKGSVMRLGEEVRQPISVIPTGSISLDVALGIGGLPRGRVIEIYGPESSGKTTVALHAVANAQAAGGIAAFIDAEHALDPEYAKKLGVDTDSLLVSQPDTGEQALEIADMLVRSGALDIIVIDSVAALVPRAEIEGEMGDSHVGLQARLMSQALRKMTGALNNSGTTAIFINQLREKIGVMFGSPETTTGGKALKFYASVRLDVRRIETLKDGTDAVGNRTRVKVVKNKVSPPFKQAEFDILYGQGISREGSLIDMGVEHGFIRKSGSWFTYEGEQLGQGKENARKFLLENTDVANEIEKKIKEKLGIGAVVTAEADDVLPAPVDF
binding [1]: binds
binding [2]: no binding

B10: Ribonuclease E (RNase E) (EC 3.1.26.12) (protein, UniProt A0R152 1-1037)
chain: MAEDAHTEDLSTQTPQQEGLPERLRVHSLARVLGTTSRRVLDALAEFDGRQRSAHSTVDKADAERVRAALTESPAAETPPEEAPAAETPVADLVVVQAEQVEVVTVSEAGPAEPAEPAEPEAPAAEAEAEAETEVADEAETPEPTFRGAVLVGDEPESRLILEHANIPPARETQTERPDYLPLFVAPQPVSFEPAVVDDEDEDDDTETGAESDFDSGADSDSDDDQADRPRRRRRGRRGRGRGRGEQNDDATSDADTDSTEDQTDGDEQESGEDSDDSGDEDSTTTEGGTRRRRRRRRRKSGSGDSDDAVSPDDPPNTVVHERAPRTERSDKSDDSEIQGISGSTRLEAKRQRRRDGRDAGRRRPPILSEAEFLARREAVERTMIVRDKVRTEPPHEGARYTQIAVLEDGVVVEHFVTSAASASLVGNIYLGIVQNVLPSMEAAFVDIGRGRNGVLYAGEVNWEAAGLGGQNRKIEQALKPGDYVVVQVSKDPVGHKGARLTTQVSLAGRYLVYVPGASSTGISRKLPDTERQRLKEILREVVPSDAGVIIRTASEGVKEEDIRSDVERLQKRWSEIEAKAAEVTEKKAGAAVALYEEPDVLVKVIRDLFNEDFSSLIVSGDEAWNTINSYVEAVAPDLMPRLTKYEPAGPDAPDVFAVHRIDEQLAKAMDRKVWLPSGGTLVIDRTEAMTVVDVNTGKFTGSGGNLEQTVTRNNLEAAEEIVRQLRLRDIGGIVVIDFIDMVLESNRDLVLRRLTEALARDRTRHQVSEVTSLGLVQLTRKRLGTGLVEAFSTACTHCGGRGIVLHGDPIDSASSNGGRKSDSSGGGGSGGGRRGKRGKKGAARTEEVHVAKVPDHTPGEHPMFKAMAAANGKHEGDEDHEDHEDHETAEDTTAAEVRDDTRDEHDADERAHVVTAAVGAAGDEDLDDSDEDSDLDSDEESDDESDEDEIELDDDEDELDEDIEVIGDSDDSDDSDDSDEDDDSDDSDDDSDEDEDSDSDEDEEPVREVYEPPVTAPRARVRRRAAARPAGPPSHD
binding [1]: binds
binding [2]: no binding

B11: Glutamine synthetase (GS) (EC 6.3.1.2) (protein, UniProt A0R079 1-478)
chain: MAEKTSDDIFKLIKDENVEYVDIRFCDLPGVVQHFSIPASAFDESVFEDGLAFDGSSVRGFQSIHESDMMLLPDPNTARIDPFRAAKTLNMNFFVHDPFTREAYSRDPRNVARKAENYLASTGIADTAFFGAEAEFYIFDSVSFDSKINGTFYEVDSESGWWNTGEPFESDGSANRGYKVRPKGGYFPVAPYDHYVDLRDQMATNLQNAGFTLERGHHEVGTAGQAEINYKFNTLLAAADDVLLFKYIIKNTAWQAGKTVTFMPKPLFGDNGSGMHAHQSLWKDGQPLFHDESGYAGLSDIARHYIGGILHHAPSLLAFTNPTVNSYKRLVPGYEAPINLVYSQRNRSACVRIPITGNNPKAKRLEFRCPDSSGNPYLAFAAMLMAGIDGIKKKIEPLQPVDKDLYELPPDEAAAIPQAPTSLSAVIDKLEEDHEYLTEGGVFTEDLIETWISYKRENEIMPIQIRPHPYEFSLYYDV
binding [2]: binds

B12: Chaperone protein DnaJ2 (protein, UniProt A0R0T8 1-381)
chain: MARDYYGLLGVSKGASDSEIKRAYRRLARELHPDVNPDEEAQHRFTEIQQAYEVLSDPEKRRIVDMGGDPMESVGGAPNGFGGFGGLGDVFEAFFGGGTTSRGPIGRVRPGSDSLLRMRLDLEECATGVTKEVTVETAVLCDLCHGKGTNGNSSPATCDTCGGRGEIQTVQRSLLGQVMTSRPCPVCGGVGEVIPDPCHRCGGDGRVRARRDISVKIPAGVGDGMRVRLAAQGEVGPGGGPAGDLYVEVHEKPHDVFVRDGDDLHCTISVPMVDAALGCTVTVDAILDGPTELTIPPGTQPGSVTTLRGHGMPHLRSGVRGDLHAHIDVVVPTRLENSDIELLRKFKENRTRDTASVRTAQGSAGSGGGLFSRLRETFTGR
binding [1]: binds

B13: 35-kDa protein (protein, UniProt A0QVU2 1-279)
chain: MANPFVKAWKYLMALFSSKVDEYADPKVQIQQAIEDAQRQHQALTQQAAQVIGNQRQLEMRLNRQLADIEKLQVNVRQALTLADQATAAGDVAKATEYNNAAEAFAAQLVTAEQSVEDLKGLHDQALQAAGQAKKAVEQNAMMLQQKIAERTKLLSQLEQAKMQEQVSSSLRSMSELAAPGTTPSLDEVRQKIERRYANAMGEAELAQNSVQGRMMEIQQASVQMAGHSRLEQIRASMRGEALPSGGATSTPATPSTQGTPSDPATNQTPPNTENPLGQ
binding [2]: binds

B14: Transcriptional regulator, GntR family protein (protein, UniProt A0QZJ0 1-252)
chain: MSPTPDPQSAVPAREIAYRIVYDAIASGRYLPGQWIREDEVTAEAGVSRTPLREALQRLQSEGLVQLVRHRGALVVGWTSADLDDLFDIRVALETYGARRAAQRRGGAQLESLQKLCASMDEILPAAQEPELQQLGHLCIDFHRGIHEAADNRKLLSVMPMVLAPPFVSEAFHHHTRLELEQAFAHHRELVEAIAIGDEDWAEGVMRAHLRHGRRSLRRMERHLPLMTSHDAEPAVTDTGQPETTSSDPVHE
binding [1]: binds
